# Source: PMC12409426
# Sequences of proteins named here, by UniProt entry; tags and fusion partners are left off.
# UniProt Q00987: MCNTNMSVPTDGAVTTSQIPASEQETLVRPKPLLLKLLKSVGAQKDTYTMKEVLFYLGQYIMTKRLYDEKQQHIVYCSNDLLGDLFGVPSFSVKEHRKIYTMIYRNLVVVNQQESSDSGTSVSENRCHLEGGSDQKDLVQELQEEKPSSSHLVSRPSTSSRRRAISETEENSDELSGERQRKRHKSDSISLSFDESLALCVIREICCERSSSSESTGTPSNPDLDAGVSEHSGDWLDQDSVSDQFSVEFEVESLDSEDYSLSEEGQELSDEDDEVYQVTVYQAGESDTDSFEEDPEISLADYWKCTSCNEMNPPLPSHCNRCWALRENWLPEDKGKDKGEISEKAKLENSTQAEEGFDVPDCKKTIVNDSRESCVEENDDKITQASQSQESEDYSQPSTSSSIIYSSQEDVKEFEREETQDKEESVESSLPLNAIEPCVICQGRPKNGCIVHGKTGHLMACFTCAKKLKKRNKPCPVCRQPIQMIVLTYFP
# No constants are given. Whether binding was seen depends on the method and setting. For part of these data: Binding seen in cells or lysates may run through a third protein. Some binding calls cover weakened binding; strength is not graded here. For part of these data: Where a sequence is shown, tags or fusion partners need not be part of it.
# B1: αB-crystallin (recombinant, His-tagged) (protein, UniProt P02511 1-175)
# chain: MDIAIHHPWIRRPFFPFHSPSRLFDQFFGEHLLESDLFPTSTSLSPFYLRPPSFLRAPSWFDTGLSEMRLEKDRFSVNLDVKHFSPEELKVKVLGDVIEVHGKHEERQDEHGFISREFHRKYRIPADVDPLTITSSLSSDGVLTVNGPRKQVSGPERTIPITREEKPAVTAAPKK
# B2: αB-crystallin (endogenous) (protein, UniProt P02511 1-175)
# chain: B1 chain
# Columns and labels:
# [1] = target: His-tagged MDM2 (recombinant, bacteria-expressed) (UniProt Q00987); test: pull-down; recombinant MDM2 (0.1-1 μg) incubated with one recombinant partner, pulled down with anti-MDM2 (SMP14) agarose, IB; overnight 4 °C in 50 mM Tris-HCl pH 8.0, 50 mM NaCl, 80 mM KCl, 0.05% Tween-20; PIP2 (0-50 μM) added in some panels; both purified
# [2] = target: MDM2 (endogenous) (human (endogenous in MDA-MB-231)) (UniProt Q00987); test: co-IP; endogenous MDM2 immunoprecipitated with anti-MDM2 (SMP14) agarose from RIPA lysates, 4 °C 24 h, IB; cells treated with vehicle or 30 μM cisplatin for 24 h
# [3] = target: MDM2 (endogenous) (human (endogenous in MDA-MB-231)) (UniProt Q00987); test: proximity ligation; Duolink PLA on fixed, permeabilised cells (MDA-MB-231) treated with vehicle or 30 μM cisplatin for 24 h (PIPKIα siRNA as control); nuclear foci counted
Binder,binding [1],binding [2],binding [3]
B1,binds,,
B2,,binds,binds
